PubChem BioAssay AID686938 – Drosophila RNAi Screening Center – 2013

Assay: 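Looking for CRAC channel components and the factors controlling them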 (primary screen)
System: Drosophila S2R+ cells
Reagent: long dsRNA against Drosophila genes, about 0.25 µg dsRNA per well, roughly 10,000 cells
Timing: 5 days of knock-down before the calcium assay
Challenge: thapsigargin (SERCA pump blocker) to empty calcium stores; entry signal taken 4 min after adding it
Measurement: 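Per-well fluo-4 fluorescence in two replicates, unnormalised, measured in resting cells and 4 min after store depletion by the SERCA blocker thapsigargin; ratio of the two present in few wells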
Scale: calcium entry signal: higher = stronger calcium signal after store depletion; resting calcium signal: higher = higher resting calcium signal
Call rule: 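Hit if the duplicate-averaged plate z-score for entry over resting signal is under −3; wells with weak total dye signal (Fmax z < −2) or more than 5 off-targets removed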
Calls: active = strongly reduced calcium entry; inactive = no strong reduction
The screen tested about 23,000 reagents; below is an unselected part of those that have a named target and a result. Over the whole deposit, 75 (0.33%) are marked active. 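Raw plate signals without normalisation; calls rest on plate z-scores that were not deposited; ratio present for only 364 wells.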 Reagent sequences are not shown. Not stated in the record: the dose of the treatment.

What is on record for CG6000 [DRSC15938]?
calcium entry signal, replicate 1 (fluorescence units): 6.05e7; calcium entry signal, replicate 2 (fluorescence units): 5.51e7; resting calcium signal, replicate 1 (fluorescence units): 2.67e7; resting calcium signal, replicate 2 (fluorescence units): 2.37e7; Outcome: inactive

For Ork1 [DRSC20266], how do the results read?
calcium entry signal, replicate 1 (fluorescence units): 2.53e7; calcium entry signal, replicate 2 (fluorescence units): 3.10e7; resting calcium signal, replicate 1 (fluorescence units): 1.20e7; resting calcium signal, replicate 2 (fluorescence units): 1.51e7; Outcome: inactive

What is on record for CG4553 [DRSC15595]?
calcium entry signal, replicate 1 (fluorescence units): 3.63e7; calcium entry signal, replicate 2 (fluorescence units): 4.64e7; resting calcium signal, replicate 1 (fluorescence units): 2.01e7; resting calcium signal, replicate 2 (fluorescence units): 2.17e7; Outcome: inactive

For CG4360 [DRSC15566], what was measured?
calcium entry signal, replicate 1 (fluorescence units): 3.73e7; calcium entry signal, replicate 2 (fluorescence units): 4.50e7; resting calcium signal, replicate 1 (fluorescence units): 5.32e7; resting calcium signal, replicate 2 (fluorescence units): 1.87e7; Outcome: inactive

For Hpf1 [DRSC12202], what was measured?
calcium entry signal, replicate 1 (fluorescence units): 3.47e7; calcium entry signal, replicate 2 (fluorescence units): 3.99e7; resting calcium signal, replicate 1 (fluorescence units): 1.59e7; resting calcium signal, replicate 2 (fluorescence units): 1.82e7; Outcome: inactive

With CG6791 [DRSC16118], what does the deposit list?
calcium entry signal, replicate 1 (fluorescence units): 2.96e7; calcium entry signal, replicate 2 (fluorescence units): 4.30e7; resting calcium signal, replicate 1 (fluorescence units): 1.23e7; resting calcium signal, replicate 2 (fluorescence units): 1.97e7; Outcome: inactive

What did the screen give for Rrp6 [DRSC16223]?
calcium entry signal, replicate 1 (fluorescence units): 2.49e7; calcium entry signal, replicate 2 (fluorescence units): 1.90e7; resting calcium signal, replicate 1 (fluorescence units): 1.79e7; resting calcium signal, replicate 2 (fluorescence units): 1.29e7; Outcome: inactive

With Delta [DRSC16648], what was measured?
calcium entry signal, replicate 1 (fluorescence units): 3.62e7; calcium entry signal, replicate 2 (fluorescence units): 4.03e7; resting calcium signal, replicate 1 (fluorescence units): 5.52e7; resting calcium signal, replicate 2 (fluorescence units): 1.93e7; Outcome: inactive

What is on record for Dnz1 [DRSC03317]?
calcium entry signal, replicate 1 (fluorescence units): 4.50e7; resting calcium signal, replicate 1 (fluorescence units): 2.14e7; Outcome: inactive

For CG17528 [DRSC07761], what was measured?
calcium entry signal, replicate 1 (fluorescence units): 2.92e7; calcium entry signal, replicate 2 (fluorescence units): 3.67e7; resting calcium signal, replicate 1 (fluorescence units): 1.42e7; resting calcium signal, replicate 2 (fluorescence units): 1.51e7; Outcome: inactive

How did the screen score CG31111 [DRSC14649]?
calcium entry signal, replicate 1 (fluorescence units): 3.31e7; calcium entry signal, replicate 2 (fluorescence units): 2.41e7; resting calcium signal, replicate 1 (fluorescence units): 1.71e7; resting calcium signal, replicate 2 (fluorescence units): 1.40e7; Outcome: inactive

For CG15456 [DRSC20527], how do the results read?
calcium entry signal, replicate 1 (fluorescence units): 4.53e7; calcium entry signal, replicate 2 (fluorescence units): 4.66e7; resting calcium signal, replicate 1 (fluorescence units): 2.13e7; resting calcium signal, replicate 2 (fluorescence units): 1.94e7; Outcome: inactive

Individual results from the entries so far.
For “calcium entry signal, replicate 2 (fluorescence units)”, Hpf1 [DRSC12202] has 3.99e7
CG6000 [DRSC15938], resting calcium signal, replicate 2 (fluorescence units) = 2.37e7
